## Assay results

Data taken from PubChem BioAssay AID1159506, deposited by NCATS (2015).

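Luminescence from an EWS-FLI1 target-promoter (NR0B1) reporter, set against a CMV-promoter reporter, two days after silencing single genes in TC32 Ewing sarcoma cells.
Each siRNA was applied at 20 nM.
A z-score of the log NR0B1-over-CMV signal, less the median of siRNAs with the same seed; more negative means a stronger specific loss of the NR0B1 reporter.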

This is part of the screen; most of the strongest results are not listed here.
Sequences are the guide (antisense) strand, without overhang.

| strand | target gene | seed-corrected z-score |
|---|---|---|
| `UUUGAUUUCAUACCGGAGC` | TIMP4 | 0.5699 |
| `AAAAGUACUGCUCUUUCUG` | MYF5 | -1.029 |
| `UUUCGGGUAUCAACUACUC` | SETX | -0.3106 |
| `UUAAAGGCACUGUCCCUUG` | NUDT18 | -0.3875 |
| `AGUGCUCUUAGGGAUCUUC` | FUNDC2P2 | -1.176 |
| `CAGAAGUAGACGACGGGCU` | MRGPRE | 1.559 |
| `UAACUCGCACUUUCCAAUG` | HUWE1 | -0.2626 |
| `UAUAUGUCAUGUCUACAGG` | CEP85L | -0.3603 |
| `AAUAUCACUUCGAUCAUCC` | CERS6 | -1.265 |
| `AGCAGUUCAGACUUGACCC` | KATNAL1 | 0.394 |
| `UUCUCCAAAAUGUCUUCGC` | GSTM2 | 0.8456 |
| `UGAUUUGAAAGGUUGUUCG` | PCDHB10 | 0.6003 |
| `UUUGUUAUCCUGAUAGUCC` | EIF1AY | 0.6867 |
| `UUUUUAGUACCAGAUAUCC` | S100A14 | 0.4026 |
| `UUUCAGCUCACCCGACUUC` | GOLGA6L10 | -0.8181 |
| `UGCUGUAUCCGGGUGCUUG` | NFKBIA | 0.002669 |
| `UAUCCGUUAGGGAUGGUCU` | PRELP | -0.08763 |
| `AUAGUCUCCAAUGAAUCUC` | RASL11A | 0.1031 |
| `UUCAUAAUUAUCCAACAGC` | RFX2 | -0.1192 |
| `UUCAUUUUCGGUAUAGUUC` | GLUD2 | 0.455 |
| `AUUGCUUCCACCCUUGAGC` | RTP4 | -1.483 |
| `UUGCUUGCAACAGCUCUAC` | DCTN2 | -0.04211 |
| `UCAAUUAUUGAGAUGAAUG` | IL5RA | 0.1378 |
| `UCUUCAUUAUAAUAGCAGC` | GMFB | 0.07844 |
| `UUAGUCGCAAUAGUAAACU` | OR5AC2 | 0.347 |
| `UCCUUGUGAACGAUCGUGG` | KCTD4 | -1.248 |
| `UAUUACAAUGCCUUGAUCU` | SH2D1A | 0.4262 |
| `UUCACGAUAUCUUCAGGGC` | PARVG | 0.3533 |
| `UGACUAAUAAACUGCAUUG` | RIT2 | -0.1833 |
| `UUCACUGUUAAGUAGGCAC` | HNRNPA1P60 | 0.7895 |
| `AUGGCCUUCAGAUACCACG` | LCN1P2 | -0.842 |
| `UCAACUUCAGCCGUUGUUC` | CADPS | -0.4124 |
| `UAACUUGGGACUGAAAGUU` | NADK | 0.4624 |
| `UGUGCUUGCAGAACAGACC` | PARVG | -0.2067 |
| `UUCUGAUCGAUGACCCUGG` | EPPK1 | -1.857 |
| `UUCACGAACAAUUUUAUUG` | OLFM3 | 0.4612 |
| `AUUUCGACAGUAGUUUUCC` | HGF | -1.51 |
| `UUCCUCGUCAUCAUAGUGC` | ANAPC15 | -0.9437 |
| `UUCCUCGAAAUGAAGGUUC` | ZNF397 | -0.7479 |
| `UUUAAGAUAUGCAUGAUUC` | LOC644145 | 1.763 |
| `UAUGUGCACGAGAAGGUCU` | ZBTB42 | -0.02912 |
| `UAAUCGGUGAAGAAUAUCC` | MYRFL | 0.479 |
| `UGUUGUAAACAUCAUAUGC` | DIAPH3 | 0.1486 |
| `UUUGACAUAAACCCGGCUC` | STPG1 | 0.09335 |
| `UGACUGCUUAUCUCUGUGG` | IL15RA | -0.1889 |
| `UUGCAUGCUAACGAAAAGC` | ABCA8 | -0.3082 |
| `UUGUUUACGAUGAUUGGUG` | FBXO8 | 1.388 |
| `UCUUUUUAUAUAGUACACC` | RPF2 | -0.2842 |
| `AGAGGAUUCAGAAUUUAUA` | ASPHD1 | -0.7076 |
| `UAUACUAUUAGUAGAACUG` | SLC30A6 | -0.2659 |
| `ACUGUUUCAAUAAAGGCUG` | LOC729950 | 0.699 |
| `AGCGUGGUCAGGAAGUUGC` | TMEM120B | -1.835 |
| `UGUGGAGCAGCAUUAGACG` | AGPAT1 | 1.573 |
| `UUACUGAGUAAGGCCACCC` | AMN | -1.326 |
| `UUGCUUUCGGCCGAGGUAG` | FOXB2 | -0.7431 |
| `UUUGCUCCUCGACUUGUCC` | ANKRD13D | 2.204 |
| `UAUAGGAGCCCGAAUAGCG` | RBM14 | -0.2807 |
| `GUUCAUACGGAAUAGGUUC` | RPL21P131 | -0.2118 |
| `AAAGUUCCCGUCACAGAUG` | MMP14 | 0.1682 |
| `UUCCUUCUCACCACGGGCA` | C2orf54 | 0.6474 |
| `UUUGUUACCCAAUCAAGGG` | WDR46 | 0.1021 |
| `UAAUUGGGCAGUAAAUAUG` | LOC284577 | 0.4298 |
| `UCAUUUCGAAGGAAGAGCC` | TSPAN16 | -1.86 |
| `UCAUCUUCUGCGAAUCUAC` | FAM21EP | 0.8595 |
| `AAUCAUUCUUCCUACCUCC` | LOC644090 | -0.3204 |
| `UAAAUUUUCGGAGAGCAAC` | ACVR1 | -0.09328 |
| `UUUGAUACCCUGUAAGGGC` | DDX46 | -1.183 |
| `UUCUUUUCGGCAGCACCUU` | PABPN1L | 0.1163 |
| `UGACGAACAUUUCAGAACC` | ZDHHC22 | -0.05724 |
| `UGGCGCUUCAACAUUUCCC` | POLR2M | 0.4078 |
| `UAUAGAGCGCCGUAGUUGG` | TCEAL3 | -0.7693 |
| `UUCGAUCUCAUCAUGUCUC` | HECA | -0.1173 |
| `UUCCCGUUCAGAUUUCCGG` | ACACA | 0.03134 |
| `UUUUAGACAAGAGAUAGAC` | HYAL4 | -0.6769 |
| `AUUCUGACAGAUAAAAUCG` | FBLN1 | 0.1399 |
| `UGAGCUAUAAGCAUUUCCC` | RMND5A | 0.08714 |
| `UUAAAUCGCAGGAUCCUUC` | PHACTR2 | 0.4477 |
| `UCUAUGAUCCGGGAGUUUG` | CYP27A1 | 0.2104 |
| `UGAGAUAGCAGGAACUGGG` | POU2F3 | -0.1331 |
| `CAAGGGACAGCAAAUGUAG` | BMS1P9 | -1.991 |
| `UUACUACCAGGUUUCAUCU` | RPL39L | -0.5585 |
| `UACACUUCCAACGUGUUCU` | MGST3 | 0.253 |

Once more, the final 10:

strand	target gene	seed-corrected z-score
UUCCCGUUCAGAUUUCCGG	ACACA	0.03134
UUUUAGACAAGAGAUAGAC	HYAL4	-0.6769
AUUCUGACAGAUAAAAUCG	FBLN1	0.1399
UGAGCUAUAAGCAUUUCCC	RMND5A	0.08714
UUAAAUCGCAGGAUCCUUC	PHACTR2	0.4477
UCUAUGAUCCGGGAGUUUG	CYP27A1	0.2104
UGAGAUAGCAGGAACUGGG	POU2F3	-0.1331
CAAGGGACAGCAAAUGUAG	BMS1P9	-1.991
UUACUACCAGGUUUCAUCU	RPL39L	-0.5585
UACACUUCCAACGUGUUCU	MGST3	0.253